Experimental findings from the supplement of paper PMC10849652 are described below.

Chains of the proteins cited; added tags and fusions are not shown. Lines headed by an entry give the natural chain unless they say otherwise; changes in a name come on top.
UniProt Q92546: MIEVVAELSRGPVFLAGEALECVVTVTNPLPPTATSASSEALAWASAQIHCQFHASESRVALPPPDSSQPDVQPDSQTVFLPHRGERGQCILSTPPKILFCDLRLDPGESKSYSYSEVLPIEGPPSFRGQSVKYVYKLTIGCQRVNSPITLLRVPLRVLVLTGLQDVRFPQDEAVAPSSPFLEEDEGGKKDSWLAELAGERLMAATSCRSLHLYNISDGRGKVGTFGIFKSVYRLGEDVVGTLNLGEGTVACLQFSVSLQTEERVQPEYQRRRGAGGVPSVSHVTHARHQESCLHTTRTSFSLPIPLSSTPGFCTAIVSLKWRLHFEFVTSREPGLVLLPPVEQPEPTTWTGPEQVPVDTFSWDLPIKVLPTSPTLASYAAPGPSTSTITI
UniProt Q6NTF9: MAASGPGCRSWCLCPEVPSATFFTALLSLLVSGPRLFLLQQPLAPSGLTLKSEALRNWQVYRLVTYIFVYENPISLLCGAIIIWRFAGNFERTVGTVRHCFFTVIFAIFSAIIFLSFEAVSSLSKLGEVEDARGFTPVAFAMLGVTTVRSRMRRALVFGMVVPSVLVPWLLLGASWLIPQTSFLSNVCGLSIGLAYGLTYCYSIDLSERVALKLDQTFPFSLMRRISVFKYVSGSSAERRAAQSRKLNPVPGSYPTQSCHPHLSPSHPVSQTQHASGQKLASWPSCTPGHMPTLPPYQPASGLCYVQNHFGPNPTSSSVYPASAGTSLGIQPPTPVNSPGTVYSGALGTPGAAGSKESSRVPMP
UniProt Q8IUF8: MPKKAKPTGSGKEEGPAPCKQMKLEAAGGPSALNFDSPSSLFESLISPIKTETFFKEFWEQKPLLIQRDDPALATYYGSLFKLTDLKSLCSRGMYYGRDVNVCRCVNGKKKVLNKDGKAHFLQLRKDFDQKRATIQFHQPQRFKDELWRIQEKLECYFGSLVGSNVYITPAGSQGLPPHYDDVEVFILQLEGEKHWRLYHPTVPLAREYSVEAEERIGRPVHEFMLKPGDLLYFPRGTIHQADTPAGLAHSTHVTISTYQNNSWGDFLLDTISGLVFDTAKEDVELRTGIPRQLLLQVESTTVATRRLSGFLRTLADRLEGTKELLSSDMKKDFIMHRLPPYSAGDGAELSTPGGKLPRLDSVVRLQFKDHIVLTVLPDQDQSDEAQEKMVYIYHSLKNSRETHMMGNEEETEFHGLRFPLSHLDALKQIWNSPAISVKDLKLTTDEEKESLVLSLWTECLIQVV
UniProt Q8WVD5: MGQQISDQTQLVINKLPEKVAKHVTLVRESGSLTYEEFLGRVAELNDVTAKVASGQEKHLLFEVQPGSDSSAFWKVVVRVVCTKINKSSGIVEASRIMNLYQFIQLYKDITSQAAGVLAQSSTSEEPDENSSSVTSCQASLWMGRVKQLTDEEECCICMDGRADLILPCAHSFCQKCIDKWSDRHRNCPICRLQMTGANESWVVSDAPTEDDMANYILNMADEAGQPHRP
UniProt P35251: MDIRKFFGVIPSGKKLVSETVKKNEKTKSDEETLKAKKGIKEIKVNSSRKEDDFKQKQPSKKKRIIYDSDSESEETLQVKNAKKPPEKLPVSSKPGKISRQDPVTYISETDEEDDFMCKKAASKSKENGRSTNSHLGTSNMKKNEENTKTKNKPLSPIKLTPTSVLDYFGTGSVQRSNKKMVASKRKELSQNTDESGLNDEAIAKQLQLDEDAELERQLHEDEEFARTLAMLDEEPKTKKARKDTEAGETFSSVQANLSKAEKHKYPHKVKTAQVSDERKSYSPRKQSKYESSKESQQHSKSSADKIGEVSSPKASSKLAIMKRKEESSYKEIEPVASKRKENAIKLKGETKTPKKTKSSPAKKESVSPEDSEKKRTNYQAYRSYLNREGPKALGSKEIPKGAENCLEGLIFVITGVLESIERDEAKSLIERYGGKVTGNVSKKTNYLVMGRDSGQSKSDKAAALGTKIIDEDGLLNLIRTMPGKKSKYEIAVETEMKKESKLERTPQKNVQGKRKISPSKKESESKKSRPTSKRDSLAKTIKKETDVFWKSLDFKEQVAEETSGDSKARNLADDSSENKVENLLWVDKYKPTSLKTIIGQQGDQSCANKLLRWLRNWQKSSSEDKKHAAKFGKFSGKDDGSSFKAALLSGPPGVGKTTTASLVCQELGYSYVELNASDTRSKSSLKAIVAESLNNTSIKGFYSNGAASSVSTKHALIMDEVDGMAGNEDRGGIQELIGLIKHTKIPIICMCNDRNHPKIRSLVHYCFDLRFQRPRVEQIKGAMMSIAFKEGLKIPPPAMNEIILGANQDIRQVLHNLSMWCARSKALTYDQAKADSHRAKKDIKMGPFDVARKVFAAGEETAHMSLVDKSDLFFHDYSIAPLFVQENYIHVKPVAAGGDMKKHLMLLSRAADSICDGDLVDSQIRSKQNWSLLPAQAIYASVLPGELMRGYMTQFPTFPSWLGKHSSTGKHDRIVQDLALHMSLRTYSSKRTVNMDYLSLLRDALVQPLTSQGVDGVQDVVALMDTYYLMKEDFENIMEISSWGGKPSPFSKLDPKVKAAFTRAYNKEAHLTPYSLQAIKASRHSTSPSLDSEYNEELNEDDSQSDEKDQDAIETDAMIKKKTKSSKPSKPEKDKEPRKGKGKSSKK
UniProt O94762: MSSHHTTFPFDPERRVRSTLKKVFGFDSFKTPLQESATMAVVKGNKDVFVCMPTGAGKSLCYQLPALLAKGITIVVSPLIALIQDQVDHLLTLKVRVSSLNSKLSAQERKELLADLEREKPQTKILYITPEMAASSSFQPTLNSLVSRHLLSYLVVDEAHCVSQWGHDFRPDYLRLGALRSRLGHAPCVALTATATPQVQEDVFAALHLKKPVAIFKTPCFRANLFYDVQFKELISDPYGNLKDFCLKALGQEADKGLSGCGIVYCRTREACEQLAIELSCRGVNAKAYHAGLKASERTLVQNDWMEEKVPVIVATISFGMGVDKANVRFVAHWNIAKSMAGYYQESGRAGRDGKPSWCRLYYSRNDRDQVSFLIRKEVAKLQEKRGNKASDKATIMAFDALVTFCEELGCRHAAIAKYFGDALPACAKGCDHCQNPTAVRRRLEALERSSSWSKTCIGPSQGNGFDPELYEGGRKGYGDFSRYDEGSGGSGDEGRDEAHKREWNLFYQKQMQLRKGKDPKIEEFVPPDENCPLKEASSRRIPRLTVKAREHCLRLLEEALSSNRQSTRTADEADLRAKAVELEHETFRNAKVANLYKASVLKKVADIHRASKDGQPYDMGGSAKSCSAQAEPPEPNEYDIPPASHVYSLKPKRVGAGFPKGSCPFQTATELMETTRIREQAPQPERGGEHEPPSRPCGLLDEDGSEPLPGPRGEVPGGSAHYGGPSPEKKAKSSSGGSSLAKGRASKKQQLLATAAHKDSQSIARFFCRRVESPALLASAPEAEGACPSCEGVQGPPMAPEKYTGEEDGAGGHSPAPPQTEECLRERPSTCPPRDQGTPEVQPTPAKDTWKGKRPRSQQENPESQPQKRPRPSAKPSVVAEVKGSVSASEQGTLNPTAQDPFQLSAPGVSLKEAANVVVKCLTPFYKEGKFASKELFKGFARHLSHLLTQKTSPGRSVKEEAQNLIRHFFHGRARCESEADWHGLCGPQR
UniProt Q96A37: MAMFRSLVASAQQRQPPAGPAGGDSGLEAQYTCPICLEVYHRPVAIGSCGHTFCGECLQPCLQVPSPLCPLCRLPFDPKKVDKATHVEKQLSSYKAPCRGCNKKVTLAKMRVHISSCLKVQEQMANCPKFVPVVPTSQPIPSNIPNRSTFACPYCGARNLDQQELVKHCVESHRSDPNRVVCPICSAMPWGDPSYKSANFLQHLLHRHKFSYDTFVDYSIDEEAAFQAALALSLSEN
UniProt Q5EBL4: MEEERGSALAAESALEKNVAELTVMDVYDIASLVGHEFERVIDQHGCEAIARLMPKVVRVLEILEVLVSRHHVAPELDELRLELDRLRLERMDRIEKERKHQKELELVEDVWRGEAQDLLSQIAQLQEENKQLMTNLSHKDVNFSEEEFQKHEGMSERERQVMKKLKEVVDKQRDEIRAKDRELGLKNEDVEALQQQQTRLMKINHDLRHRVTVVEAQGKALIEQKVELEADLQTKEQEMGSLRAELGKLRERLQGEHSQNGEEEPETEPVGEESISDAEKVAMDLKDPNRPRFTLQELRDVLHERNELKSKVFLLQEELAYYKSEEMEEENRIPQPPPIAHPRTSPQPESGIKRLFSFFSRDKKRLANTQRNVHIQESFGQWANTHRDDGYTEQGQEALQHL
UniProt Q2KHR2: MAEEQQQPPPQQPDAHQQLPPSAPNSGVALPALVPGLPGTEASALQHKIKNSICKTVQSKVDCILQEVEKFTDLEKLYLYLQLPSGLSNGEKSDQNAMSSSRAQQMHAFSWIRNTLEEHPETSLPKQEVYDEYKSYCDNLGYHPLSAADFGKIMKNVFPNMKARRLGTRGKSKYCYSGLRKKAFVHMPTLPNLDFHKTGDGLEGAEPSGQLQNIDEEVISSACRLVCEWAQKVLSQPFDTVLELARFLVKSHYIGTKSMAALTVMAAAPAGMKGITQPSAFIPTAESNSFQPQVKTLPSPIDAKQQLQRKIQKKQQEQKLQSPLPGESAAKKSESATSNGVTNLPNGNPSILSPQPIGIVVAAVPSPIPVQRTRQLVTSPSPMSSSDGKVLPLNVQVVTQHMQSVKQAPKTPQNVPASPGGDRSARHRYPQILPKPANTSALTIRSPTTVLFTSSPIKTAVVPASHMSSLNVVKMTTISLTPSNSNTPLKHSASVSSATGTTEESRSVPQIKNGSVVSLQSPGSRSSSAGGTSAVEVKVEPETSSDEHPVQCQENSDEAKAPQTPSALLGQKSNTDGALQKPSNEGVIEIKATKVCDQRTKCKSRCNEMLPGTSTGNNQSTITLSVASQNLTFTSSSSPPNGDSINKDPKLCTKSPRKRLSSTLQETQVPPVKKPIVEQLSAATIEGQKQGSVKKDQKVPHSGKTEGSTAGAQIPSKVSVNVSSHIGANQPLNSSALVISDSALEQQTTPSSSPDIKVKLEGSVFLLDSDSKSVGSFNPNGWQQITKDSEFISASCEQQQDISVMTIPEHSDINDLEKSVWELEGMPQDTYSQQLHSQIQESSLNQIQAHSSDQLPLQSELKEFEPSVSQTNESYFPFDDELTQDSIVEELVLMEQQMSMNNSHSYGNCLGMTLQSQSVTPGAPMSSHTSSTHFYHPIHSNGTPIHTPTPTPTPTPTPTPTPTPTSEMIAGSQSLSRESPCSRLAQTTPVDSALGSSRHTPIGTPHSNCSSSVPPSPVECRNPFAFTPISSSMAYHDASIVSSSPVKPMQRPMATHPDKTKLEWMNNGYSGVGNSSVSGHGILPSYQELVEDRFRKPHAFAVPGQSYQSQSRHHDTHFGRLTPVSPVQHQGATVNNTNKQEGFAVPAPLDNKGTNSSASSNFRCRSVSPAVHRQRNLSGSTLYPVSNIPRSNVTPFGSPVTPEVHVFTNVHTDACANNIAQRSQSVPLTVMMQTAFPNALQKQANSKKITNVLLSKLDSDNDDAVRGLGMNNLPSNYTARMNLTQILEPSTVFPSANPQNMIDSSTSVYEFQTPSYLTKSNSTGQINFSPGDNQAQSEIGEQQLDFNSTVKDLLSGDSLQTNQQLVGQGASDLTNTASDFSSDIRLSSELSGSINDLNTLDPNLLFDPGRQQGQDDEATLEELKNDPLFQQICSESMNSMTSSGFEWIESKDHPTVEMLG
UniProt Q9H6W3: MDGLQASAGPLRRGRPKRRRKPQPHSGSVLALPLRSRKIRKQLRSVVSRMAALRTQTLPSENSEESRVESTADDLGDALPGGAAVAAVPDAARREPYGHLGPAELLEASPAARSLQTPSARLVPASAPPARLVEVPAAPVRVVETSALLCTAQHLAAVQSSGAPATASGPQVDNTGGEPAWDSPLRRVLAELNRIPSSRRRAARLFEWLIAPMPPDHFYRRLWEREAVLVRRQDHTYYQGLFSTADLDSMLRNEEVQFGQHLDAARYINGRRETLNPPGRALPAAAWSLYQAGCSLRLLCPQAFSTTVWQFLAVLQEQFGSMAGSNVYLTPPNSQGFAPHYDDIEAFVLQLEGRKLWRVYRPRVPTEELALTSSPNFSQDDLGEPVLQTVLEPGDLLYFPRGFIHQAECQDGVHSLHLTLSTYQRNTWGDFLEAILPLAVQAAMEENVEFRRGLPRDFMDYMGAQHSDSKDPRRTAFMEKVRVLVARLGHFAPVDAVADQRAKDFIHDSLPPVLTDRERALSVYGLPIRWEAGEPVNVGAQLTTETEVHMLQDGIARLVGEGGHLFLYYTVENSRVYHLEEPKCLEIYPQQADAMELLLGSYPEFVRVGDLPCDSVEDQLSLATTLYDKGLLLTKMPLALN
UniProt Q92963, whole entry, looked up: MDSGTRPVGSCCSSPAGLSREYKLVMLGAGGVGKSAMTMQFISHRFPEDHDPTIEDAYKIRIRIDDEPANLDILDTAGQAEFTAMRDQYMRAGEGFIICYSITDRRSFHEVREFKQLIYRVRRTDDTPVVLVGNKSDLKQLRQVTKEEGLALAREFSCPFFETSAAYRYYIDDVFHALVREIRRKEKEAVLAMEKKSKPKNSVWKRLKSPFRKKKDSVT

The list shows a part of the results.

Compound in one experiment: CN(CCOC1=CC=C(C=C1)C[C@H]2C(=O)NC(=O)S2)C3=CC=CC=N3 (racemic) [rosiglitazone]
In words: log2 fold change, soluble protein after heating vs DMSO (PISA); higher = thermal stabilisation; K562 cells, 10 uM, 30 min; active = over 0.2 and 3.5 SD of the protein, either way, in both replicates (recomputed). In a few lines: (§1)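 K562 cells at 2×10^6 cells/mL were treated with 10 μM compound for 30 min. Aliquots were heated for 3 min across 48°C-58°C, pooled, and extracted in PBS with 0.5% NP-40 at 4°C; soluble protein was the supernatant after 21,000xg for 90 min. Soluble protein was quantified by TMTpro 16plex LC-MS/MS with channel sums equalised, and reported as log2 fold change in thermal stability against DMSO controls, with values from duplicates.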
In the case of RNF139 (UniProt Q8WU17), the log2 fold change is inactive: 0.052.
In the case of RNF168 (UniProt Q8IYW5), the log2 fold change was inactive: -0.108.
Consider RGS14 (UniProt O43566), for which the log2 fold change is inactive: -0.006.
Still for that read-out and setting: to RGP1 (UniProt Q92546) belongs inactive: -0.242; to RHBDD2 isoform 2 (UniProt Q6NTF9), inactive: 0.022; to RGCC (UniProt Q9H4X1), inactive: 0.022.
Still for that read-out and setting: the same measure for RIOX2 (UniProt Q8IUF8): inactive: 0.032; for RBP4 (UniProt P02753): inactive: 0.027; for RFX5 (UniProt P48382): inactive: -0.041.
On to RCBTB1 (UniProt Q8NDN9), for which the log2 fold change is inactive: 0.01.
RNF13 (UniProt O43567): the log2 fold change is inactive: -0.075.
In the case of RNF141 (UniProt Q8WVD5), the log2 fold change is inactive: 0.076.
The same measure, in the same setting: the same measure for RERE (UniProt Q9P2R6): inactive: -0.012.

Compound in another experiment: CN1C2=C(C3=C1C(=O)N(N=C3)CC4=CC(=CC=C4)N)SC(=C2)S(=O)C
The description is as above. In a few lines: as §1
RNF168 (UniProt Q8IYW5): the log2 fold change was inactive: 0.046.
Regarding RBM6 (UniProt P78332), the log2 fold change was inactive: 0.109.
Still for that read-out and setting: to RFC1 (UniProt P35251) belongs inactive: 0.091; to RHBDD2 isoform 2 (UniProt Q6NTF9), inactive: -0.049.
With RECQL5 (UniProt O94762), the log2 fold change was inactive: 0.202.
Turning to RIOX2 (UniProt Q8IUF8), the log2 fold change was inactive: -0.012.
For RBP4 (UniProt P02753), the log2 fold change was inactive: 0.405.
On the same count and under the same terms, the same measure for RMI2 (UniProt Q96E14): inactive: -0.084; for RNF166 (UniProt Q96A37): inactive: -0.002; for RNF169 (UniProt Q8NCN4): inactive: 0.153.
Still for that read-out and setting: the same measure for RCBTB1 (UniProt Q8NDN9): inactive: -0.007; for RNF13 (UniProt O43567): inactive: 0.111; for RNF167 (UniProt Q9H6Y7): inactive: 0.05.
As for RCL1 (UniProt Q5VZU2), the log2 fold change was inactive: 0.069.
Take RBP1 isoform 3 (UniProt P09455): the log2 fold change was inactive: 0.177.
RILPL1 (UniProt Q5EBL4): the log2 fold change was inactive: -0.097.
Consider RFX7 (UniProt Q2KHR2), for which the log2 fold change is inactive: -0.098.

Compound in the next experiment: CN1CCC(CNc2ccc3ncc(-c4cccc(OC(F)(F)F)c4)n3n2)CC1
Described as above. In outline: as §1
In the case of RNF139 (UniProt Q8WU17), the log2 fold change was inactive: 0.008.
As for RNF111 isoform 3 (UniProt Q6ZNA4), the log2 fold change is inactive: 0.09.
Regarding RGS14 (UniProt O43566), the log2 fold change is inactive: 0.086.
Turning to RBM6 (UniProt P78332), the log2 fold change was inactive: 0.175.
On to RIOX1 (UniProt Q9H6W3), for which the log2 fold change was inactive: 0.05.
RFC1 (UniProt P35251): the log2 fold change is inactive: -0.321.
Consider RFXANK (UniProt O14593), for which the log2 fold change is inactive: 0.028.
The same measure, in the same setting: to RHBDD2 isoform 2 (UniProt Q6NTF9) belongs inactive: 0.023; to RNASEL (UniProt Q05823), inactive: 0.001.
The same measure, in the same setting: to RECQL5 (UniProt O94762) belongs inactive: 0.104; to RGCC (UniProt Q9H4X1), inactive: 0.296; to RIOX2 (UniProt Q8IUF8), inactive: -0.119.
Same read-out and setting: the same measure for RBP4 (UniProt P02753): inactive: -0.271; for RFX5 (UniProt P48382): inactive: -0.022.
Consider RNF166 (UniProt Q96A37), for which the log2 fold change is inactive: -0.01.
For RC3H2 (UniProt Q9HBD1), the log2 fold change is inactive: 0.001.
For the target RNF169 (UniProt Q8NCN4), the log2 fold change is inactive: -0.122.
For RNF167 (UniProt Q9H6Y7), the log2 fold change was inactive: -0.097.
Consider RBM48 isoform 2 (UniProt Q5RL73), for which the log2 fold change was inactive: 0.114.
Consider RIT1 isoform 3 (UniProt Q92963), for which the log2 fold change was inactive: 0.4.
On to RNF141 (UniProt Q8WVD5), for which the log2 fold change is inactive: 0.113.
With RBP1 isoform 3 (UniProt P09455), the log2 fold change was inactive: 0.162.
